Construct, isoform or probe ends are uncertain for at least one entry. No signal at the amounts used counts as a negative. Tags and fusion partners may be left off the protein sequences shown. A weaker result is weaker than the reference pair of the same experiment.
Target: T1, BaCcpC-FL (Bacillus amyloliquefaciens) (UniProt A0A9P1JGF9)
T1 sequence (looked up): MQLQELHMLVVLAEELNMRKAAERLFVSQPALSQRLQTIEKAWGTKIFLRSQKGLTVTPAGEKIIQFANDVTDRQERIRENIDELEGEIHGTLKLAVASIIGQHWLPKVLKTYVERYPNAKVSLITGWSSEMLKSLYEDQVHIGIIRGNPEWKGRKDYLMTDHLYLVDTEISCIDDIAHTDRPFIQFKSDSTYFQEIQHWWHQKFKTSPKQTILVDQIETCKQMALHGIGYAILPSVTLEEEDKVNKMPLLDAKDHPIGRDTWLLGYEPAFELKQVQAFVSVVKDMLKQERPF
Assay: EMSA
Settings: 800 nM DNA, EMSA at room temperature, 30 min, 6% acrylamide gel in 0.5x TBE on ice, binding buffer not stated (Beyotime chemiluminescent EMSA kit), recombinant protein, residues 1-293, protein details: N-terminal His6 tag, removed with TEV protease, label: biotin

Sequence | binding result (40 uM protein) | binding result (2.5-40 uM protein, complete shift as protein increases) | binding result (sodium citrate (0-70 uM as printed), 40 uM protein, slightly suppressed)
TGATAAGACGATCTTATTGT (double strand) [citB-PI] | no binding |  | 
TGATAAGACGATCTTATTGTATTTAATAAAAACATTGATATTTACTTATGTATGAT (double strand) [citB-P] |  | binds | binds more weakly
TGATATTTACTTATGTATGAT (double strand) [citB-PII] | no binding |  | 
